PubChem BioAssay AID1508597 – Cure First, 2020

Assay: 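Genes whose silencing sensitises or protects ovarian cancer cells against rucaparib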 (primary screen)
System: human ovarian carcinoma lines grown from tumours: OCI-P5x (papillary serous) and OCI-C5x (clear cell)
Reagents: siRNA pool against human genes, 1.25 pmol siRNA per well
Duration: 72 h or 96 h, depending on the cell culture
Treatment: rucaparib 20 µM (about IC30) or vehicle, present until read-out
Rucaparib or vehicle: Rucaparib
Cell line: OCI-P5x (serous)
Read-out: 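ATP luminescence measured at 72 or 96 h according to the culture, then normalised and expressed as percent viability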
Reading the numbers: viability, normalised: higher = more viable cells remaining
Rule for the call: 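a well counts as a hit if its normalised viability is under 80 percent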
Meaning of the calls: active = viability under 80%; inactive = viability 80% or more
This is an unselected part of the about 2,100 reagents, in one setting of the screen. 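Calls flag viability under 80% in either arm, not effects specific to rucaparib; the reference for percent is not stated.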 Entries without a mark were called inactive. No sequences are given here. The record does not give: the 100% reference.

| Target gene | PubChem SID | technical replicate | viability, normalised (%) |
| --- | --- | --- | --- |
| WNT4 (Wnt family member 4) | SID405526629 | 1 | 50 (active) |
| WNT4 (Wnt family member 4) | SID405526629 | 2 | 41 (active) |
| WNT4 (Wnt family member 4) | SID405526629 | 3 | 42.4 (active) |
| PAK3 (p21 (RAC1) activated kinase 3) | SID405527679 | 1 | 68.5 (active) |
| PAK3 (p21 (RAC1) activated kinase 3) | SID405527679 | 2 | 97.2 |
| PAK3 (p21 (RAC1) activated kinase 3) | SID405527679 | 3 | 61.9 (active) |
| USP16 (ubiquitin specific peptidase 16) | SID405526610 | 1 | 62 (active) |
| USP16 (ubiquitin specific peptidase 16) | SID405526610 | 2 | 43.1 (active) |
| USP16 (ubiquitin specific peptidase 16) | SID405526610 | 3 | 55.1 (active) |
| RFC1 (replication factor C subunit 1) | SID405528342 | 1 | 83 |
| RFC1 (replication factor C subunit 1) | SID405528342 | 2 | 78.7 (active) |
| RFC1 (replication factor C subunit 1) | SID405528342 | 3 | 83.6 |
| PHF21A (PHD finger protein 21A) | SID405527151 | 1 | 39.3 (active) |
| PHF21A (PHD finger protein 21A) | SID405527151 | 2 | 34.4 (active) |
| PHF21A (PHD finger protein 21A) | SID405527151 | 3 | 38.5 (active) |
| MAP4K2 (mitogen-activated protein kinase kinase kinase kinase 2) | SID405527457 | 1 | 114 |
| MAP4K2 (mitogen-activated protein kinase kinase kinase kinase 2) | SID405527457 | 2 | 107 |
| MAP4K2 (mitogen-activated protein kinase kinase kinase kinase 2) | SID405527457 | 3 | 109 |
| CDIPT (CDP-diacylglycerol--inositol 3-phosphatidyltransferase) | SID405528086 | 1 | 77.6 (active) |
| CDIPT (CDP-diacylglycerol--inositol 3-phosphatidyltransferase) | SID405528086 | 2 | 67.8 (active) |
| CDIPT (CDP-diacylglycerol--inositol 3-phosphatidyltransferase) | SID405528086 | 3 | 64.1 (active) |
| CTCFL (CCCTC-binding factor like) | SID405528153 | 1 | 53.9 (active) |
| CTCFL (CCCTC-binding factor like) | SID405528153 | 2 | 54.4 (active) |
| CTCFL (CCCTC-binding factor like) | SID405528153 | 3 | 53.3 (active) |
| SMPDL3A (sphingomyelin phosphodiesterase acid like 3A) | SID405526722 | 1 | 44.7 (active) |
| SMPDL3A (sphingomyelin phosphodiesterase acid like 3A) | SID405526722 | 2 | 48.6 (active) |
| SMPDL3A (sphingomyelin phosphodiesterase acid like 3A) | SID405526722 | 3 | 43.4 (active) |
| SIRT5 (sirtuin 5) | SID405527303 | 1 | 53.2 (active) |
| SIRT5 (sirtuin 5) | SID405527303 | 2 | 38.4 (active) |
| SIRT5 (sirtuin 5) | SID405527303 | 3 | 55.3 (active) |
| TDRD12 (tudor domain containing 12) | SID405526543 | 1 | 46.8 (active) |
| TDRD12 (tudor domain containing 12) | SID405526543 | 2 | 52.6 (active) |
| TDRD12 (tudor domain containing 12) | SID405526543 | 3 | 52.2 (active) |
| MED31 (mediator complex subunit 31) | SID405527006 | 1 | 71.9 (active) |
| MED31 (mediator complex subunit 31) | SID405527006 | 2 | 74.5 (active) |
| MED31 (mediator complex subunit 31) | SID405527006 | 3 | 82.4 |
| F3 (coagulation factor III, tissue factor) | SID405526775 | 1 | 43.2 (active) |
| F3 (coagulation factor III, tissue factor) | SID405526775 | 2 | 53.3 (active) |
| F3 (coagulation factor III, tissue factor) | SID405526775 | 3 | 51.9 (active) |
